Source: patent US11571481B2, “Peptide-linked drug delivery system” (priority 2020, dated 2023)
Not every detail of the peptide structures is certain; ends, links or a residue may be inferred. Where a SMILES comes first, the peptide text is derived from it.

Experiments:
[1] = system: UMUC-3 BC cells; test: Cellular uptake of Cy-Bdd (fluorescence microscopy); assay type: cell-based, human; conditions: UMUC-3, Cy-Bdd 0.5 nmol, 6 and 24 h
[2] = system: Renca renal adenocarcinoma cells; test: as above; assay type: cell-based, murine; conditions: Cy-Bdd 0.5 nmol, 6 and 24 h

SMILES: CN1/C(=C/C=C/C=C/C2=[N+](CCCCCC(=O)NCCC(=O)N[C@H](CC(=O)O)C(=O)N[C@H](CC(=O)O)C(=O)NCCC(=O)N[C@H](CC(=O)O)C(=O)N[C@H](CC(=O)O)C(=O)NCCC(=O)N[C@H](CC(=O)O)C(=O)N[C@H](CC(=O)O)C(=O)NCCC(=O)N[C@H](CC(=O)O)C(=O)N[C@H](CC(=O)O)C(N)=O)c3ccc4ccccc4c3C2(C)C)C(C)(C)c2c1ccc1ccccc21 [Cy-Bdd] (HELM PEPTIDE1{[CN1/C(=C/C=C/C=C/C2=[N+](CCCCCC(=O)[*:2])c3ccc4ccccc4c3C2(C)C)C(C)(C)c2c1ccc1ccccc21].[bAla].[dD].[dD].[bAla].[dD].[dD].[bAla].[dD].[dD].[bAla].[dD].[dD].[am]}$$$$V2.0)
- cellular uptake [1]: taken up
- cellular uptake [2]: taken up
